Data reported in patent EP0618796B1 (priority 1991, dated 1993).
For at least one compound, name, drawing or mass did not settle the structure.

Assay: Sublingual treatment of migraine patients during the prodrome
Format: in vivo
Conditions: 50 mg sublingually during the prodrome, in the absence of any other analgesic; single patient

## OCCOCCN1CCN(C(c2ccccc2)c2ccc(Cl)cc2)CC1 (stereo not shown) [hydroxyzine pamoate]
  prevention of migraine (absence of severe headache, disappearance of prodrome symptoms): the migraine failed to appear
